Assay results: paper PMC6264874, “A single class of ARF GTPase activated by several pathway-specific ARF-GEFs regulates essential membrane traffic in Arabidopsis” (PLoS Genetics, 2018)

Legend:
[1] = target: T1, GNL1-Myc (Arabidopsis thaliana) (UniProt Q9FLY5); experiment: co-IP; protein extracts of 5-6 days old Arabidopsis seedlings expressing differently tagged ARFs and ARF-GEFs; lysis buffer 50mM Tris pH 7.5, 150mM NaCl, 2mM EDTA, 1% Triton X-100; alpha-Myc-agarose, GFP-Trap or RFP-Trap beads, 2.5-3h in the cold room; immunoblot; in some experiments with BFA (50 uM); T31N and Q71L forms induced with 20 uM estradiol for 6h
T1 sequence: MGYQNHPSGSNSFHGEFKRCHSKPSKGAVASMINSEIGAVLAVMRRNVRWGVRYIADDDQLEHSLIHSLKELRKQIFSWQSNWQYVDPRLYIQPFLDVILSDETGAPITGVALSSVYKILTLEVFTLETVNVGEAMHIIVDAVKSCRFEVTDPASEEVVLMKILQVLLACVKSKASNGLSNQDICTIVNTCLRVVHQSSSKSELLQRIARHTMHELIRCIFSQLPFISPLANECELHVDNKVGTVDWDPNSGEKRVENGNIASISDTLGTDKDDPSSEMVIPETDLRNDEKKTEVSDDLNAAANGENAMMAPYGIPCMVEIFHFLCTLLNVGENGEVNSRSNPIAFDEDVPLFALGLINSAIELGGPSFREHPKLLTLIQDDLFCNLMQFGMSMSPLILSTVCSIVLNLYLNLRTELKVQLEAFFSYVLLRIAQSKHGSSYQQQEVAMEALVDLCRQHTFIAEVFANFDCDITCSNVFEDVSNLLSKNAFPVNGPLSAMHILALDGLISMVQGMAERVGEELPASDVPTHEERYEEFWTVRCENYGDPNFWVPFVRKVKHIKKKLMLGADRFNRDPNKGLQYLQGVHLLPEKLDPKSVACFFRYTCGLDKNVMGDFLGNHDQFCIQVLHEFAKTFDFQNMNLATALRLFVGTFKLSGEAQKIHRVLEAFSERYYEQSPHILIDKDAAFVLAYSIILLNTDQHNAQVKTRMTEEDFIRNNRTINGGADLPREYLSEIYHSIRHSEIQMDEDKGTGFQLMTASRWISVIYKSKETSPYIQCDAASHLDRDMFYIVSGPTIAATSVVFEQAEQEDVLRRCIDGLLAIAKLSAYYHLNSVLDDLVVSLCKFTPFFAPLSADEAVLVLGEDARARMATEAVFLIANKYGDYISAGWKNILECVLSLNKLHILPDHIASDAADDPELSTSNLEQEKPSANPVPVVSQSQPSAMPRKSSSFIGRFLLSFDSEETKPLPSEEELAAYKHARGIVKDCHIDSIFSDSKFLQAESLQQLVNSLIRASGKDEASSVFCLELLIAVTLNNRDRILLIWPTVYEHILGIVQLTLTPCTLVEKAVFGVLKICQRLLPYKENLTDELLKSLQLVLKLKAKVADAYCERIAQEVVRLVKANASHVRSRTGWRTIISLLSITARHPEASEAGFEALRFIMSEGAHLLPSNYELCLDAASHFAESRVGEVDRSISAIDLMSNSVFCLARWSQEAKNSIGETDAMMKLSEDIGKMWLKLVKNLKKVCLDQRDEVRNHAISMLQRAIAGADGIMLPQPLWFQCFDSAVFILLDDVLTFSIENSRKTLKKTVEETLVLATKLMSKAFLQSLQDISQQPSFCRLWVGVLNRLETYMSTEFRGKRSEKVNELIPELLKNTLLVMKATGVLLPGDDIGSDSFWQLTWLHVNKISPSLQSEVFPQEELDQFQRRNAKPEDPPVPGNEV

[2] = target: T2, GNL2-GFP (GN::GNL2-GFP) (Arabidopsis thaliana) (UniProt F4K2K3); experiment: as above
T2 sequence: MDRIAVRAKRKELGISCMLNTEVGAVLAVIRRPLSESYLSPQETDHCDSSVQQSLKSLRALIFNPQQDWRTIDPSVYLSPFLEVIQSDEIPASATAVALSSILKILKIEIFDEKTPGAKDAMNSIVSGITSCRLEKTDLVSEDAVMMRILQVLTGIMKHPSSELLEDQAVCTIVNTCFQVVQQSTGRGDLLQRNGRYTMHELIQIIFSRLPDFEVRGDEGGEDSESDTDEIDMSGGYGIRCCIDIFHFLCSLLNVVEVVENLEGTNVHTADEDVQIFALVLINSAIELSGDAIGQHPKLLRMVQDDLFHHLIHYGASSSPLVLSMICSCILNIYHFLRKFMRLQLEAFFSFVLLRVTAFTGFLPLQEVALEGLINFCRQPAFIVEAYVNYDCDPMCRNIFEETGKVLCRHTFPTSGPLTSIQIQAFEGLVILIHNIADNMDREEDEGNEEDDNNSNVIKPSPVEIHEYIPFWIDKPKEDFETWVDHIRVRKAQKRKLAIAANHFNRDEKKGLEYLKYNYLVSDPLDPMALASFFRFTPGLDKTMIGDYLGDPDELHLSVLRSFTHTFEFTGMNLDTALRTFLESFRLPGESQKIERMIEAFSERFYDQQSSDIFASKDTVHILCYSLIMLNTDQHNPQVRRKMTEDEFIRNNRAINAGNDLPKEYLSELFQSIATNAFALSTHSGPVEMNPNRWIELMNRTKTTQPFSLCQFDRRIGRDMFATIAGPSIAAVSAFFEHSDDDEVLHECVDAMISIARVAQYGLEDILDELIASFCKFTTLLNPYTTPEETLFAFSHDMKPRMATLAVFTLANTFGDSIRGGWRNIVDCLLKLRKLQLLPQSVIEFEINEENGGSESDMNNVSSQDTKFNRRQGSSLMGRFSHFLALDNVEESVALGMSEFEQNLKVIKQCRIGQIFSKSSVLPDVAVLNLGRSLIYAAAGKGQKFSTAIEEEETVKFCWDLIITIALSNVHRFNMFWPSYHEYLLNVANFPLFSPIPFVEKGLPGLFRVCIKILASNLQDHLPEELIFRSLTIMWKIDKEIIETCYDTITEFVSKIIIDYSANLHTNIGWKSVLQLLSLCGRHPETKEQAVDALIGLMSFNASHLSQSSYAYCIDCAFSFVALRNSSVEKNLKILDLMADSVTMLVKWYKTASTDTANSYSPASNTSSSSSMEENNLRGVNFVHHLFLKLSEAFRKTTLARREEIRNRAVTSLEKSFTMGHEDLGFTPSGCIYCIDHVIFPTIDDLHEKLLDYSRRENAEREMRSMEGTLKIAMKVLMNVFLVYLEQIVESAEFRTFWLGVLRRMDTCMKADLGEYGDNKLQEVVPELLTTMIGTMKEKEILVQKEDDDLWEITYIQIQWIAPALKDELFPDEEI

Substance | binding [1] | binding [2]
ARFA-YFP (ARFB1b-YFP) (Arabidopsis thaliana) | no binding | 
endogenous ARF1 | binds | binds

Results are given in words; binding and its absence hold for the method and conditions named. In cells and extracts the contact can be indirect. Binding can be weak; no strength is given. Sequences can lack the tags named with a protein.
